Where a name gives a salt, the structure may show the parent alone. For at least one compound, name, drawing or mass did not settle the structure.
Test: Index of bioavailability (% Relative Activity, plasma TT AUC oral vs i.v.)
Type: in vivo
Parameters: key: NC^1 indicates screening not completed; low or very low activity observed at 20 mg/kg p.o.; NC^2 indicates screening not completed; low or very low activity observed at 60 mg/kg p.o.; NC^3 indicates screening not completed; low or very low activity observed at 50 mg/kg p.o
Details: screening not completed, activity p.o. at the dose given in the note
Protocol: Plasma thrombin time (TT) and activated partial thromboplastin time (APTT) are measured with a fibrometer. […] Parke Davis) at 37° C. […] Assays are done in duplicate and averaged. A measure of bioactivity, plasma thrombin time (TT), served as a substitute for the assay of parent compound on the assumption that increments in TT resulted from thrombin inhibition by parent only. The time course of the effect of the thrombin inhibitor upon TT is determined after i.v. bolus administration to anesthetized rats and after oral treatment of fasted conscious rats. Due to limitations of blood volume and the number of points required to determine the time course from time of treatment to the time when the response returned to pretreatment values, two populations of rats are used. Each sample population represented alternating sequential time points. The average TT over the time course is used to calculate area under the curve (AUC). The index of bioavailability is calculated by the formula shown below and is expressed as percent relative activity. The area under the curve (AUC) of the plasma TT time course is determined and adjusted for the dose. […] Bolus injection volume is 1 mL/kg for i.v., and 5 mL/kg for p.o. and infusion volume is 3 mL/hr.

Compound: CCS(=O)(=O)N[C@H](Cc1ccccc1)C(=O)N1CCC[C@H]1C(=O)NCCc1ccc(C(=N)N)cc1 [Example 26, EtSO2 -D-Phe-Pro-p-NHCH2 CH2 --C6 H4 C(=NH)NH2.HCl]
- % oral/i.v. activity (Rat): NC^1
